Source: PubChem BioAssay AID294 (DTP/NCI, 2004)
The list is a part of this screen's results and no random one: it covers a few groups of compounds. Other doses and runs of a compound may be missing. T/C is the treated group as % of the vehicle group. Schedules are NCI's codes, taken here to give the interval after Q, in days (D) or hours (H), and the number of doses after X. Some entries hold several experiments; the values are given in rising order. Some values lie below zero, which means that the treated tumours became smaller. Some T/C values are followed by the survivors on the day toxicity was checked; where neither a count nor a note follows, no animal had died by that day. Some entries give survivors of the animals treated and no T/C: the source holds a T/C of zero for them, seemingly a mark for toxic or unscored doses. Counts of survivors are from the toxicity check, whose day is not always given; animals may have died later.

System: MX-1 breast xenograft, nude mice, tumor weight change
Experiment: NCI In Vivo Anticancer Drug Screen. Data for tumor model Human Mammary Carcinoma MX-1 Xenograft (subcutaneous) in NU/NU Swiss (nude) mice
Details: T/C endpoint: optimum tumor weight change, schedule: Q04DX003 (ip), higher T/C = larger tumour
Description: The antitumor activity of compounds was measured in mice bearing transplantable tumors. Survival or tumor size were measured and the results are expressed as the measurement made in the treated group (T) divided by the measurement made in the vehicle treated control group (C). The tumor model used in this assay is Human Mammary Carcinoma MX-1 Xenograft (subcutaneous) in NU/NU Swiss (nude) mice

ClCCN(CCCl)c1ccccc1
T/C (dose: 6.25 mg/kg/injection, vehicle: saline with Tween-80, evaluated on day 40): 69 % of control | T/C (dose: 12.5 mg/kg/injection, vehicle: saline with Tween-80, evaluated on day 37): 103 % of control | T/C (dose: 12.5 mg/kg/injection, vehicle: saline with Tween-80, evaluated on day 40): 61 and 140 % of control | T/C (dose: 25.0 mg/kg/injection, vehicle: saline with Tween-80, evaluated on day 37): 76 % of control | T/C (dose: 25.0 mg/kg/injection, vehicle: saline with Tween-80, evaluated on day 40): 55 and 59 % of control | T/C (dose: 50.0 mg/kg/injection, vehicle: saline with Tween-80, evaluated on day 37): -41 % of control | T/C (dose: 50.0 mg/kg/injection, vehicle: saline with Tween-80, evaluated on day 40): 44 [4 of 5 alive on day 40] and 48 % of control [4 of 5 alive on day 40] | survivor count (dose: 50.0 mg/kg/injection, vehicle: saline with Tween-80): 2 of 5 on day 38 | T/C (dose: 100.0 mg/kg/injection, vehicle: saline with Tween-80, evaluated on day 40): -42 % of control [4 of 5 alive on day 40] | survivor count (dose: 100.0 mg/kg/injection, vehicle: saline with Tween-80): 0 of 5 on day 40, 2 of 5 on day 38, 2 of 5 on day 40 | survivor count (dose: 200.0 mg/kg/injection, vehicle: saline with Tween-80): 0 of 5 on day 38 and 0 of 5 on day 40

C[N+](CCCl)(CCCl)Cc1ccc([N+](=O)[O-])cc1
T/C (dose: 12.5 mg/kg/injection, vehicle: saline, evaluated on day 34): 97 % of control

CC1=CC(=O)C(N(CCCl)CCCl)=CC1=O
T/C (dose: 3.13 mg/kg/injection, vehicle: Klucel (hydroxypropylcellulose) (HPC), evaluated on day 34): 49 % of control
